{"source": "paper PMC6532946", "about": "“Structure and assembly of pilotin-dependent and -independent secretins of the type II secretion system” (PLoS Pathogens, 2019)", "target": "ExeD wild type in A. hydrophila cells (A. hydrophila) (UniProt P31780)", "test": "immunoblot of the multimeric and monomeric forms after SDS-PAGE; whole cell samples of A. hydrophila Ah65 or AhD14 expressing WT or S-domain mutant ExeDs, mid- and late-log phase; samples heated to 95°C in sample buffer containing 2% SDS; ExeD antiserum", "note": "These are yes or no findings as the source states them, for the method shown. Some entries that bind do so weakly or less than the wild type."}
{"binder": "ExeD secretin from A. hydrophila (cell-free synthesized, His-tagged) (natural protein, ExeD, T2SS secretin of Aeromonas hydrophila; a TEV cleavage site linker lies between the His-6 tag and the protein. numbers count on: the mature protein; No TEV cleavage is described; also called pilotin-independent ExeD; GspD; source: cell-free expression system with liposomes, extracted as multimers with Zw3-14, purified (Ni-NTA, Superose 6); copies: 15) TEYSASFKNADIEEFINTVGKNLSKTIIIEPSVRGKINVRSYDLLNEEQYYQFFLSVLDVYGFAVVPMDNGVLKVVRSKDAKTSAIPVVDETNPGIGDEMVTRVVPVRNVSVRELAPLLRQLNDNAGGGNVVHYDPSNVLLITGRAAVVNRLVEVVRRVDKAGDQEVDIIKLKYASAGEMVRLVTNLNKDGNSQGGNTSLLLAPKVVADERTNSVVVSGEPKARARIIQMVRQLDRDLQSQGNTRVFYLKYGKAKDMVEVLKGVSSSIEADKKGGGTATTAGGGASIGGGKLAISADETTNALVITAQPDVMAELEQVVAKLDIRRAQVLVEAIIVEIADGDGLNLGVQWANTNGGGTQFTNAGPGIGSVAIAAKDYKDNGTTTGLAKLAENFNGMAAGFYQGNWAMLVTALSTNTKSDILSTPSIVTMDNKEASFNVGQEVPVQTGTQNSTSGDTTFSTIERKTVGTKLVVTPQINEGDSVLLTIEQEVSSVGKQATGTDGLGPTFDTRTVKNAVLVKSGETVVLGGLMDEQTKEEVSKVPLLGDIPVLGYLFRSTSNNTSKRNLMVFIRPTILRDANVYSGISSNKYTLFRAQQLDAVAQEGYATSPDRQVLPEYGQDVTMSPEAQKQIELMKTHQQATADGVQPFVQGNK", "values": [{"measurement": "binding", "result": "binds"}]}
